Experimental data taken from the supplement of paper PMC10849652.
The other results are listed elsewhere or left out.

Amino acid sequences for entries named in this document (tags omitted). A change or cut given only in a name is not applied to a line headed by its entry.
UniProt Q9BZI7: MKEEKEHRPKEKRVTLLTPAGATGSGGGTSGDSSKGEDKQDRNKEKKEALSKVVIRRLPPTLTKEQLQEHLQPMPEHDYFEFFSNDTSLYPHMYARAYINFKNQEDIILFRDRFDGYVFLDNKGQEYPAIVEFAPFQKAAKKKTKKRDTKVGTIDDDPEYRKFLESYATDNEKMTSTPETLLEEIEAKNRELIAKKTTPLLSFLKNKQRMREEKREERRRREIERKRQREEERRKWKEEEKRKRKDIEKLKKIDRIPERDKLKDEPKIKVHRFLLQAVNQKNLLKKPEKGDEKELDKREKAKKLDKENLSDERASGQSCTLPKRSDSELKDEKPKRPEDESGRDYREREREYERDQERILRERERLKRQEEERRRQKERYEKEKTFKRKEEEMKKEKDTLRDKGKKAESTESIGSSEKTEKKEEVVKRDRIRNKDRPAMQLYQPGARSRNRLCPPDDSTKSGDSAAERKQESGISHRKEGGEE
UniProt Q15386: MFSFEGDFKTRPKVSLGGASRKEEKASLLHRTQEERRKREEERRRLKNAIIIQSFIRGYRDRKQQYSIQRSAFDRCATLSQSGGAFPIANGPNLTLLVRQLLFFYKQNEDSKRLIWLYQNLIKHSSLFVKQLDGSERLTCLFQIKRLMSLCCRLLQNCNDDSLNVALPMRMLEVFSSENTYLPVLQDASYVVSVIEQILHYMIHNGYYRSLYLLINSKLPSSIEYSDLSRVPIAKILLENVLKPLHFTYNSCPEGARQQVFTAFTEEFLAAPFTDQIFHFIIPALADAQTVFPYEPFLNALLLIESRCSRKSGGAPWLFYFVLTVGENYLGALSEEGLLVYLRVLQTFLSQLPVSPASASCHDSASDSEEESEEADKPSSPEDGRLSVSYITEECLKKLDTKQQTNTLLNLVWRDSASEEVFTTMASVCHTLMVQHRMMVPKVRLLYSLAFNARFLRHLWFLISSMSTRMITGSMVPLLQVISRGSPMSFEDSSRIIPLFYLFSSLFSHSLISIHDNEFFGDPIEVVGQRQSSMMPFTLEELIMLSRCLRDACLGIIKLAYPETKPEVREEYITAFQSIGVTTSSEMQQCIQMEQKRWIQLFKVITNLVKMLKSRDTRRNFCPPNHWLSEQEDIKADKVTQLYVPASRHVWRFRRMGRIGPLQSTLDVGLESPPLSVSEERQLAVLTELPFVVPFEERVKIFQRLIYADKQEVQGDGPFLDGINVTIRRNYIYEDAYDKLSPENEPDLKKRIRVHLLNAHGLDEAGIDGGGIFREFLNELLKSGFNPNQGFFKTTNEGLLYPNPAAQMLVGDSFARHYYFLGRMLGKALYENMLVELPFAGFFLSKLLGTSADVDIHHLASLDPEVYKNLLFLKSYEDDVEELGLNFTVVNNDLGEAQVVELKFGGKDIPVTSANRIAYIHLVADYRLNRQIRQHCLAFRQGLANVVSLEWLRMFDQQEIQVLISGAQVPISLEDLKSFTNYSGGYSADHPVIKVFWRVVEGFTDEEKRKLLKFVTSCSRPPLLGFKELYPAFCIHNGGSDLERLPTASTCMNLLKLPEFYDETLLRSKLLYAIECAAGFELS
UniProt Q8N806: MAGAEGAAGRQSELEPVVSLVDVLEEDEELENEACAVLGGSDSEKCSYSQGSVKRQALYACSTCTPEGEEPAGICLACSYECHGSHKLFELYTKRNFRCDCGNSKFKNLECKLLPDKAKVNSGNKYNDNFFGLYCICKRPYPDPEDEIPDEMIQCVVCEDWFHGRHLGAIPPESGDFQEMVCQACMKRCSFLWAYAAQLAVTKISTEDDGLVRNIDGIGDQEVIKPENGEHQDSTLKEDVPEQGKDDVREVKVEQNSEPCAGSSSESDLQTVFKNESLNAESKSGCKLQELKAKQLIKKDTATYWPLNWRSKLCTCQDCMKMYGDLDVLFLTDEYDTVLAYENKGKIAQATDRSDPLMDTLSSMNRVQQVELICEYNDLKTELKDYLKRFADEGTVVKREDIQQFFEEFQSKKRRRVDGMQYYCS
UniProt P07919: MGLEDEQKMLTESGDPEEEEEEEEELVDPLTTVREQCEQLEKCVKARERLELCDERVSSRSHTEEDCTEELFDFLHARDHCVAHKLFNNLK
UniProt P51809, whole entry, looked up: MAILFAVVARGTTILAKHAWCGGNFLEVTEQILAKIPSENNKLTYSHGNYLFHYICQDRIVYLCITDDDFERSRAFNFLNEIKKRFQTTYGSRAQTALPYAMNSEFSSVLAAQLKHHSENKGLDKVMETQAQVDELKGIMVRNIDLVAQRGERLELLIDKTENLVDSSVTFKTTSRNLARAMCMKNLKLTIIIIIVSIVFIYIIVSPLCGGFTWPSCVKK
UniProt P15374: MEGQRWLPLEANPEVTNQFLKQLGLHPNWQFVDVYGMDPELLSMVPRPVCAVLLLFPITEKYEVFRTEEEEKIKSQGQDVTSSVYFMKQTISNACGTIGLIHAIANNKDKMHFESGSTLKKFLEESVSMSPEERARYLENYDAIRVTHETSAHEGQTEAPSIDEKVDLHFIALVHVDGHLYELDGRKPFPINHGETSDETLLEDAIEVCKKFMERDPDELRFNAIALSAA
UniProt Q92575: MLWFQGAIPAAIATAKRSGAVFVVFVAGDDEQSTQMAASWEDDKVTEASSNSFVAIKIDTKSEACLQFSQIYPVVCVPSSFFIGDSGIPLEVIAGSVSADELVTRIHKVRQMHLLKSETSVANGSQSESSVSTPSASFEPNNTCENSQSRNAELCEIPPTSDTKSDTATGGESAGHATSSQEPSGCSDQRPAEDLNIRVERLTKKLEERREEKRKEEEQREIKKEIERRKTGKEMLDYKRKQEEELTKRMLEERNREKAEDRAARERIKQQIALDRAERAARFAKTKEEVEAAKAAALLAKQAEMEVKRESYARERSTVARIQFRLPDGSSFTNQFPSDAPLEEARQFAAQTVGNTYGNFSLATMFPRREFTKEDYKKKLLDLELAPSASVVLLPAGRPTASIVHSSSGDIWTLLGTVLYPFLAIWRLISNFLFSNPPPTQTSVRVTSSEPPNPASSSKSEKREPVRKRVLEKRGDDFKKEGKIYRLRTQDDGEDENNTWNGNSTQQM
UniProt Q8IWV8: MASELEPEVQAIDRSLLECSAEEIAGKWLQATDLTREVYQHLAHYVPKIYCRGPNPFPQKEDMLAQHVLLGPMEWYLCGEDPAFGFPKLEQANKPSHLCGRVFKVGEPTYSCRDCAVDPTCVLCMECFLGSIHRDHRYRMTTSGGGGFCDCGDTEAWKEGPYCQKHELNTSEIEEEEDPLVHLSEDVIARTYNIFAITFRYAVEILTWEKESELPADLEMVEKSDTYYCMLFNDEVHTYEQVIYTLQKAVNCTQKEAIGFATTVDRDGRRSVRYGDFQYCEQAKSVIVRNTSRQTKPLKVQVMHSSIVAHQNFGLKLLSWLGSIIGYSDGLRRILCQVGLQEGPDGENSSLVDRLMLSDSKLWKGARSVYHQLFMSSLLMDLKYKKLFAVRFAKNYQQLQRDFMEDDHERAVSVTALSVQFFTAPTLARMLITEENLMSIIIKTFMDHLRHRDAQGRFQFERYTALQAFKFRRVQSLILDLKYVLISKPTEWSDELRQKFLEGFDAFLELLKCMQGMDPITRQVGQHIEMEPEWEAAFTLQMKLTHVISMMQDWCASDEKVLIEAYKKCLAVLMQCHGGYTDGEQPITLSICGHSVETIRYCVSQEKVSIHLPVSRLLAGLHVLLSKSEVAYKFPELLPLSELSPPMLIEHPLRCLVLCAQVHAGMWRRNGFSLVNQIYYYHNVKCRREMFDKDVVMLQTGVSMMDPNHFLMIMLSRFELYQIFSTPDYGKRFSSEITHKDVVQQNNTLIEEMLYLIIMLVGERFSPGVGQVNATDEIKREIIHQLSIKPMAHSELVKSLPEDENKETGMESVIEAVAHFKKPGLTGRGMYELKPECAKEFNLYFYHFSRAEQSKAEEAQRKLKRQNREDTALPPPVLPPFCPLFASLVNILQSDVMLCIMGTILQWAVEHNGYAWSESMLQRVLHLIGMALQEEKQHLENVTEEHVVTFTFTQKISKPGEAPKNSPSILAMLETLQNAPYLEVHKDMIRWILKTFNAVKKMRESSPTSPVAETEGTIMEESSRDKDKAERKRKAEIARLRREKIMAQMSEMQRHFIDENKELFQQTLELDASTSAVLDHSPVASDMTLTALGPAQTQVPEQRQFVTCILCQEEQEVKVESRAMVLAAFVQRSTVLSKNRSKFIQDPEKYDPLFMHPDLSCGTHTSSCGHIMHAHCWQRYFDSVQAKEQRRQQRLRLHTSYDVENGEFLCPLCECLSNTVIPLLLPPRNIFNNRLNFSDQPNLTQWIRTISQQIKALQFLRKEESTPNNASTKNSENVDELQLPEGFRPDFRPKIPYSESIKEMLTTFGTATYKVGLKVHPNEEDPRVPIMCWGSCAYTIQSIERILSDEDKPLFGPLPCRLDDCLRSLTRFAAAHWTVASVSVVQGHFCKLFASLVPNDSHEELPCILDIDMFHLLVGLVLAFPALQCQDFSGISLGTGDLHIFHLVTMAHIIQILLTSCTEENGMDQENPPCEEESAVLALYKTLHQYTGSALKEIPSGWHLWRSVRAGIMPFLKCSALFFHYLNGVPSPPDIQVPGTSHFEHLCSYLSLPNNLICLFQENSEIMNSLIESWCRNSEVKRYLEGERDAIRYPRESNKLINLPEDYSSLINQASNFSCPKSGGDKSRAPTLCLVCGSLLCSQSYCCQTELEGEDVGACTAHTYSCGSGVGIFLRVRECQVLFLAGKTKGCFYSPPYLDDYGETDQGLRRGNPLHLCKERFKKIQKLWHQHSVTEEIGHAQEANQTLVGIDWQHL

Tests used:
Assay in all cases: log2 fold change, soluble protein after heating vs DMSO (PISA); higher = thermal stabilisation; K562 cells, 10 uM, 30 min; active = over 0.2 and 3.5 SD of the protein, either way, in both replicates (recomputed)
[1] = compound: COC1=CC=C(C=C1)CN2C=CC3=C2C=C(C=C3)C(=O)NO
Outline: (§1)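 K562 cells at 2×10^6 cells/mL were treated with 10 μM compound for 30 min. Aliquots were heated for 3 min across 48°C-58°C, pooled, and extracted in PBS with 0.5% NP-40 at 4°C; soluble protein was the supernatant after 21,000xg for 90 min. Soluble protein was quantified by TMTpro 16plex LC-MS/MS with channel sums equalised, and reported as log2 fold change in thermal stability against DMSO controls, with values from duplicates.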

filanesib = compound: CON(C)C(=O)N1N=C(c2cc(F)ccc2F)S[C@@]1(CCCN)c1ccccc1 [filanesib]
Outline: as §1

zotarolimus = compound: CO[C@H]1C[C@@H]2CC[C@@H](C)[C@@](O)(O2)C(=O)C(=O)N2CCCC[C@H]2C(=O)O[C@H]([C@H](C)C[C@@H]2CC[C@H](n3cnnn3)[C@H](OC)C2)CC(=O)[C@H](C)/C=C(\C)[C@@H](O)[C@@H](OC)C(=O)[C@H](C)C[C@H](C)/C=C/C=C/C=C/1C [zotarolimus]
Outline: as §1

idasanutlin = compound: COc1cc(C(=O)O)ccc1NC(=O)[C@@H]1N[C@@H](CC(C)(C)C)[C@](C#N)(c2ccc(Cl)cc2F)[C@H]1c1cccc(Cl)c1F [idasanutlin]
Outline: as §1

alisertib = compound: COc1cc(Nc2ncc3c(n2)-c2ccc(Cl)cc2C(c2c(F)cccc2OC)=NC3)ccc1C(=O)O [alisertib]
Outline: as §1

[2] = compound: COc1cc2nc(-c3cc(F)ccc3O)nc(N[C@@H]3CNC[C@H]3C(C)(C)O)c2cc1OC
Outline: as §1

gefitinib = compound: COc1cc2ncnc(Nc3ccc(F)c(Cl)c3)c2cc1OCCCN1CCOCC1 [gefitinib]
Outline: as §1

[3] = compound: COc1cccc2cc(-c3nc([C@H]4CC[C@H](C(=O)O)CC4)n4ncnc(N)c34)[nH]c12
Outline: as §1

lapatinib = compound: CS(=O)(=O)CCNCc1ccc(-c2ccc3ncnc(Nc4ccc(OCc5cccc(F)c5)c(Cl)c4)c3c2)o1 [lapatinib]
Outline: as §1

pictilisib = compound: CS(=O)(=O)N1CCN(Cc2cc3nc(-c4cccc5[nH]ncc45)nc(N4CCOCC4)c3s2)CC1 [pictilisib]
Outline: as §1

[4] = compound: CS(=O)(=O)c1ccc(-c2cnc(N)c(C(=O)Nc3ccccc3)n2)cc1
Outline: as §1

crizotinib = compound: C[C@@H](Oc1cc(-c2cnn(C3CCNCC3)c2)cnc1N)c1c(Cl)ccc(F)c1Cl [crizotinib]
Outline: as §1

[5] = compound: C[C@@H]1COCCN1C2=NC(=NC(=C2)C3(CC3)S(=O)(=O)C)C4=C5C=CNC5=CC=C4
Outline: as §1

[6] = compound: C[C@H](C1=CC=C(C=C1)C(=O)NC2=C3C=CNC3=NC=C2)N
Outline: as §1

gandotinib = compound: Cc1cc(Nc2cc(CN3CCOCC3)c3nc(C)c(Cc4ccc(Cl)cc4F)n3n2)n[nH]1 [gandotinib]
Outline: as §1

[7] = compound: Cc1cc(SCc2sc(-c3ccc(C(F)(F)F)cc3)nc2C)ccc1OCC(=O)O
Outline: as §1

doramapimod = compound: Cc1ccc(-n2nc(C(C)(C)C)cc2NC(=O)Nc2ccc(OCCN3CCOCC3)c3ccccc23)cc1 [doramapimod]
Outline: as §1

ispinesib = compound: Cc1ccc(C(=O)N(CCCN)[C@@H](c2nc3cc(Cl)ccc3c(=O)n2Cc2ccccc2)C(C)C)cc1 [ispinesib]
Outline: as §1

duvelisib = compound: C[C@H](Nc1ncnc2nc[nH]c12)c1cc2cccc(Cl)c2c(=O)n1-c1ccccc1 [duvelisib]
Outline: as §1

tozasertib = compound: Cc1cc(Nc2cc(N3CCN(C)CC3)nc(Sc3ccc(NC(=O)C4CC4)cc3)n2)n[nH]1 [tozasertib]
Outline: as §1

Measured: log2 fold change

UPF3B (UniProt Q9BZI7)
inactive: [1] -0.044 | filanesib 0.26 | zotarolimus -0.015 | idasanutlin 0.209 | alisertib -0.048 | [2] 0.187 | gefitinib 0.061 | [3] -0.114 | lapatinib 0.234 | pictilisib -0.058 | [4] 0 | crizotinib 0.091 | [5] -0.63 | [6] 0.542 | gandotinib 0.452 | [7] 0.064 | doramapimod 0.295 | ispinesib -0.222

UBE3C (UniProt Q15386)
inactive: [1] 0.05 | filanesib -0.038 | zotarolimus 0.033 | idasanutlin -0.082 | alisertib -0.061 | [2] -0.005 | gefitinib 0.069 | [3] 0.001 | lapatinib 0.028 | pictilisib -0.04 | [4] 0.001 | crizotinib 0.029 | [5] 0.022 | [6] -0.025 | duvelisib 0.027 | gandotinib -0.029 | tozasertib 0.024 | [7] 0.045 | doramapimod -0.022 | ispinesib 0.003

UBR7 (UniProt Q8N806)
inactive: [1] 0 | filanesib 0.18 | zotarolimus 0.002 | idasanutlin 0.003 | alisertib -0.031 | [2] 0.046 | gefitinib -0.011 | [3] -0.018 | lapatinib 0.019 | pictilisib 0.025 | [4] -0.017 | crizotinib -0.014 | [5] -0.015 | [6] -0.098 | duvelisib 0.037 | gandotinib 0.006 | tozasertib 0.026 | [7] 0.046 | doramapimod -0.04 | ispinesib 0.131

UQCRH (UniProt P07919)
inactive: [1] -0.096 | filanesib 0.023 | zotarolimus -0.104 | idasanutlin 0.018 | alisertib 0.098 | [2] 0.034 | gefitinib -0.02 | [3] -0.016 | lapatinib -0.167 | pictilisib -0.052 | [4] -0.035 | crizotinib 0.025 | [5] 0.05 | [6] 0 | duvelisib 0.109 | gandotinib -0.167 | tozasertib 0.012 | [7] -0.057 | doramapimod -0.077 | ispinesib 0.005

VAMP7 (UniProt P51809)
active: crizotinib -0.299 | ispinesib -0.275
inactive: [1] 0.035 | filanesib -0.095 | zotarolimus -0.005 | idasanutlin -0.111 | alisertib -0.072 | [2] 0.099 | gefitinib 0.033 | [3] 0.012 | lapatinib -0.005 | pictilisib -0.001 | [4] 0.021 | [5] 0.005 | [6] -0.046 | gandotinib -0.026 | [7] -0.011 | doramapimod -0.007

UCHL3 (UniProt P15374)
inactive: [1] 0.003 | filanesib -0.038 | zotarolimus 0.077 | idasanutlin -0.063 | alisertib -0.094 | [2] -0.013 | gefitinib -0.011 | [3] 0.044 | lapatinib 0.037 | pictilisib 0.026 | [4] 0.005 | crizotinib 0.041 | [5] 0.174 | [6] -0.053 | duvelisib 0.028 | gandotinib 0.011 | tozasertib 0.082 | [7] 0.064 | doramapimod 0.009 | ispinesib 0.058

Pulled one by one from the entries so far, 2 records:
UPF3B (UniProt Q9BZI7)
inactive: [1] -0.044 | filanesib 0.26 | zotarolimus -0.015 | idasanutlin 0.209 | alisertib -0.048 | [2] 0.187 | gefitinib 0.061 | [3] -0.114 | lapatinib 0.234 | pictilisib -0.058 | [4] 0 | crizotinib 0.091 | [5] -0.63 | [6] 0.542 | gandotinib 0.452 | [7] 0.064 | doramapimod 0.295 | ispinesib -0.222

UCHL3 (UniProt P15374)
inactive: [1] 0.003 | filanesib -0.038 | zotarolimus 0.077 | idasanutlin -0.063 | alisertib -0.094 | [2] -0.013 | gefitinib -0.011 | [3] 0.044 | lapatinib 0.037 | pictilisib 0.026 | [4] 0.005 | crizotinib 0.041 | [5] 0.174 | [6] -0.053 | duvelisib 0.028 | gandotinib 0.011 | tozasertib 0.082 | [7] 0.064 | doramapimod 0.009 | ispinesib 0.058

Later entries.

UBXN4 (UniProt Q92575)
inactive: [1] -0.027 | filanesib -0.045 | zotarolimus -0.061 | idasanutlin -0.077 | alisertib 0.009 | [2] 0.072 | gefitinib 0.019 | [3] 0.055 | lapatinib 0.013 | pictilisib 0.067 | [4] 0.031 | crizotinib 0.017 | [5] 0.042 | [6] 0.12 | duvelisib 0.054 | gandotinib -0.053 | tozasertib -0.012 | [7] -0.019 | doramapimod 0.02 | ispinesib -0.022

UBR2 (UniProt Q8IWV8)
inactive: [1] -0.016 | filanesib 0.027 | zotarolimus -0.105 | idasanutlin 0.054 | alisertib -0.041 | [2] 0.024 | gefitinib -0.021 | [3] 0.061 | lapatinib 0.052 | pictilisib 0.036 | [4] 0 | crizotinib -0.027 | [5] -0.063 | [6] 0.166 | gandotinib 0 | [7] 0.135 | doramapimod 0.073 | ispinesib -0.141
